# Data source: PubChem BioAssay AID1224831 (NIAID, 2016)
# Test: 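Retesting screen hits on the TLR4-driven TNF response with six separate siRNAs each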 (follow-up of hits)
# Cells: human THP-1 B5 monocytic leukaemia cells carrying a TNF promoter luciferase reporter, made macrophage-like with PMA
# Reagent: single siRNA against human genes, 50 nM
# Time to read-out: about 68 h of knock-down, then 4 h LPS
# Treatment: LPS (Salmonella minnesota, TLR-grade) at 10 ng/ml for 4 h; PMA 5 ng/ml present during knock-down
# Read-out: 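TNF promoter reporter read as dual luciferase ratio after 4 h LPS, normalised per plate to its median, given as replicate mean robust z-score per siRNA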
# Reading the numbers: TNF reporter z-score: higher = stronger LPS-induced TNF reporter signal; z-score, median over gene's siRNAs: higher = stronger TNF reporter signal across the gene's siRNAs
# Call rule: 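Two-sided call: reduced or raised TNF reporter signal counts as active once mean z reaches about -1 or below, or about 1.5 or above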
# Calls: active = changed TNF reporter (either direction); inactive = little change
# Shown is one part, drawn at random, of about 3,500 deposited reagents. 731 of them (21%) count as active. 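Active means either lowered or raised reporter signal; the gene-median score did not drive the per-siRNA calls.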 Reagents against one gene are numbered here. Reagent sequences are not shown.
gene knocked down,reagent no.,"TNF reporter z-score, replicate mean","z-score, median over gene's siRNAs",call
SLC24A3,1,1.63,0.165,active
SLC24A3,2,0.18,0.165,inactive
SLC24A3,3,0.38,0.165,inactive
SLC24A3,4,0.15,0.165,inactive
SLC24A3,5,-0.13,0.165,inactive
SLC24A3,6,-1.93,0.165,active
BUB3,1,1.67,0.625,active
BUB3,2,-0.84,0.625,inactive
BUB3,3,0.64,0.625,inactive
BUB3,4,-0.7,0.625,inactive
BUB3,5,0.61,0.625,inactive
BUB3,6,0.8,0.625,inactive
ANKH,1,-0.56,0.425,inactive
ANKH,2,0.67,0.425,inactive
ANKH,3,0.21,0.425,inactive
ANKH,4,1.18,0.425,inactive
ANKH,5,0.48,0.425,inactive
ANKH,6,0.37,0.425,inactive
EIF2S2,1,-1.26,-0.245,active
EIF2S2,2,-1.41,-0.245,active
EIF2S2,3,-0.09,-0.245,inactive
EIF2S2,4,6.18,-0.245,active
EIF2S2,5,-0.4,-0.245,inactive
EIF2S2,6,0.73,-0.245,inactive
PLBD1,1,0.2,0.195,inactive
PLBD1,2,1.14,0.195,inactive
PLBD1,3,0.19,0.195,inactive
PLBD1,4,-0.48,0.195,inactive
PLBD1,5,0.31,0.195,inactive
PLBD1,6,0,0.195,inactive
RASAL2,1,-1.16,-0.835,active
RASAL2,2,0.59,-0.835,inactive
RASAL2,3,-0.11,-0.835,inactive
RASAL2,4,-0.85,-0.835,inactive
RASAL2,5,-0.82,-0.835,inactive
RASAL2,6,-1.1,-0.835,active
PRKG1,1,0.89,-0.25,inactive
PRKG1,2,0.25,-0.25,inactive
PRKG1,3,-0.98,-0.25,inactive
PRKG1,4,-0.75,-0.25,inactive
PRKG1,5,-1.51,-0.25,active
PRKG1,6,1.16,-0.25,inactive
LYSMD3,1,-0.73,-0.005,inactive
LYSMD3,2,1.74,-0.005,active
LYSMD3,3,-0.63,-0.005,inactive
LYSMD3,4,0.58,-0.005,inactive
LYSMD3,5,1.32,-0.005,inactive
LYSMD3,6,-0.59,-0.005,inactive
CYP27A1,1,-2.76,-1.98,active
CYP27A1,2,-2.32,-1.98,active
CYP27A1,3,-2.7,-1.98,active
CYP27A1,4,-1.5,-1.98,active
CYP27A1,5,-1.63,-1.98,active
CYP27A1,6,-1.01,-1.98,active
EHMT1,1,-0.87,-0.385,inactive
EHMT1,2,-2.11,-0.385,active
EHMT1,3,-0.39,-0.385,inactive
EHMT1,4,2.42,-0.385,active
EHMT1,5,-0.38,-0.385,inactive
EHMT1,6,-0.21,-0.385,inactive

An excerpt of the results above, for reference:
gene knocked down,reagent no.,"TNF reporter z-score, replicate mean","z-score, median over gene's siRNAs",call
SLC24A3,5,-0.13,0.165,inactive
SLC24A3,6,-1.93,0.165,active
BUB3,1,1.67,0.625,active
BUB3,2,-0.84,0.625,inactive
